Among all 320,000 compounds or so, about 22,000 (6.9%) were called active. Inconclusive results, whose numbers are uncertain, are shown with a selection of clear calls. Calls follow the shape of the dose curve; as a rule, active = well fitted inhibition curve with a large enough effect; inconclusive = small, poorly fitted or top-dose-only effect, or another doubt; inactive = no such curve, though single readings can be large or run the other way. Potencies of inconclusive entries are doubtful fits and often do not repeat.
Assay: Primary qHTS for delayed death inhibitors of the malarial parasite plastid, 96 hour incubation
Conditions: P. falciparum luciferase reporter growth; series mostly up to 28.7 µM
Procedure, shortened: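 Parasite growth measured via integrated firefly luciferase reporter in P. falciparum. Infected erythrocytes at 2% hematocrit, 0.05% parasitemia final were treated 96 hours at 37 C under 5% CO2, and luminescence was read.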
Potency is read from the fitted curve at half-maximal effect.

Structure (SMILES) | Potency
CCOc1ccccc1N1CCN(C(=O)Nc2cccc(Cl)c2)CC1 | inconclusive: 18.5 µM [inhibitor, single point]
CCn1c(Oc2ccccc2)nc2c1c(=O)n(C)c(=O)n2C | inactive
CC(=O)c1cccc(CN2CCN(CCC(C)C)C(CCO)C2)c1 (stereo unspecified) | inactive
CCCCNC(=O)C1CCC(=O)N1CCc1ccccc1 (stereo unspecified) | inactive
COc1ccc(CCNC(=O)COC(=O)c2cc(=O)c3ccccc3o2)cc1 | inconclusive: 18.5 µM [inhibitor, single point]
COc1ccc(C(=O)c2c3ccc(OC)cc3[n+]([O-])n2CCCC(N)=O)cc1 | inconclusive: 13.1 µM [inhibitor, single point]
CC(NC(=O)c1ccc(F)cc1F)C1CC2CCC1C2 (stereo unspecified) | inactive
CN(C(=O)c1cccc(NC(=O)c2ccco2)c1)c1ccccc1 | inconclusive: 14.7 µM [inhibitor, single point]
COC(=O)Nc1ccc(Oc2ccccc2)cc1 | inconclusive: 9.28 µM [inhibitor, partial curve, poor fit]
CCCCC1(COC(=O)CCC(=O)O)C(=O)N(c2ccccc2)N(c2ccccc2)C1=O | inactive
CCN(CC)C(=O)c1[nH]cnc1C(=O)N[C@@H](CCCCNC(=O)OC(C)(C)C)C(=O)OC(C)(C)C | inconclusive: 4.15 µM [inhibitor, full curve, poor fit]
CC(=O)c1ccc(Nc2nc3ccccc3nc2NS(=O)(=O)c2cccs2)cc1 | inconclusive: 6.57 µM [inhibitor, partial curve, poor fit]
Cc1ccccc1NC(=O)NNC(=O)COc1ccc2ccccc2c1 | inconclusive: 11.7 µM [inhibitor, single point]
CCN(C(=O)COC(=O)/C=C/c1cccc([N+](=O)[O-])c1)c1ccccc1 | inconclusive: 1.85 µM [inhibitor, single point]
FC(F)(F)c1cccc(N2CCN(C(=S)NC3CCCCC3)CC2)c1 | inactive
Cc1cc(NC(=O)CCCC(=O)Nc2ccc(F)cc2)no1 | active: 8.28 µM
CCOc1ccc(S(=O)(=O)N2CCC(C(=O)NC3CCCCC3)CC2)cc1 | inconclusive: 11.7 µM [inhibitor, single point]
Cc1ccc(Nc2nnc(SCC(=O)Nc3ncc(C(F)(F)F)cc3Cl)s2)cc1 | inconclusive: 20.8 µM [inhibitor, partial curve, poor fit]
Cn1nnnc1Sc1ncnc2scc(-c3ccc([N+](=O)[O-])cc3)c12 | active: 3.7 µM
Cc1nn(C2CCS(=O)(=O)C2)c(C)c1C=O (stereo unspecified) | inactive
COCc1ccc(O)c2ncccc12 | inconclusive: 0.0026 µM [inhibitor, full curve, poor fit]
O=C(c1ccccc1Oc1ccccc1)N1CCN(c2ccccc2F)CC1 | inconclusive: 14.7 µM [inhibitor, partial curve, poor fit]
CCOc1ccc(CNC(=S)N/N=C\c2ccc([N+](=O)[O-])cc2)cc1 | inconclusive: 10.4 µM [inhibitor, single point]
Cc1no[n+]([O-])c1COc1ccccc1/C=C1\NC(=S)NC1=O | active: 10.4 µM

Structure (SMILES) | Potency
O=C1CCN(S(=O)(=O)c2ccccc2)CCN1CCOCc1ccccc1 | active: 9.28 µM
COCC(C)NC(=O)CSc1nc(-c2ccccc2)c(-c2ccccc2)o1 (stereo unspecified) | inconclusive: 18.5 µM [inhibitor, single point]
COC(=O)[C@@H]1C[C@@]2(O)[C@@H](O)[C@@H](O)[C@@H](O)C[C@H]2N1C/C=C/c1ccccc1 | inactive
Cc1ccc2c(C)c(C(=O)N3CCN(Cc4ccc5c(c4)OCO5)CC3)oc2c1C | inconclusive: 10.4 µM [inhibitor, partial curve, poor fit]
O=C1OCC2=C1C(c1ccc(F)cc1)Sc1ccccc1N2 (stereo unspecified) | inconclusive: 13.1 µM [inhibitor, single point]
Oc1c(C(c2cccs2)N2CCN(c3ccccc3)CC2)ccc2cccnc12 (stereo unspecified) | inconclusive: 4.65 µM [inhibitor, partial curve, poor fit]
CN(C(=O)CC1C(=O)NCCN1CC1CCCCC1)C1CCOCC1 (stereo unspecified) | inactive
CCCc1c(C(=O)N/N=C/C(C)=C/c2ccccc2)nnn1-c1nonc1N | inactive
Cc1cc2c(c(=O)n1CCc1ccccc1)C(c1ccco1)C(C#N)=C(N)O2 (stereo unspecified) | inconclusive: 1.47 µM [inhibitor, full curve]
O=C1c2ccccc2C(=O)c2c(NCc3cccnc3)cccc21 | inconclusive: 1.65 µM [inhibitor, full curve, poor fit]
O=C(O)CN1C(=O)C(=O)N(Cc2ccc(Cl)c(Cl)c2)C1=O | inconclusive: 1.04 µM [inhibitor, partial curve, poor fit]
CCCCOc1ccc(CSCCN=C(N)N)cc1 | inactive
CCOC(=O)c1sc(NC(=O)CC)c(C#N)c1C | inconclusive: 11.7 µM [inhibitor, partial curve]
Cc1cccc(NC(=O)[C@H](Cc2c[nH]c3ccccc23)NC(=O)[C@@H]2Cc3ccccc3CN2)c1 | active: 11.7 µM
COc1ccc(OC)c(NC(=O)CCNC(=O)c2ccco2)c1 | inactive
COc1ccc(CCNC(=O)c2sc3cc(C)ccc3c2Cl)cc1 | inactive
O=S(=O)(NCC1CCCO1)c1ccc(-c2ccc(S(=O)(=O)NCC3CCCO3)cc2)cc1 (stereo unspecified) | inactive
CCN(Cc1ccncc1)C(=O)CCc1nnc(CCc2ccccc2OC)o1 | inconclusive: 5.22 µM [inhibitor, partial curve]
Cc1cccc(C)c1NC(=S)N(CCN(C)C)Cc1cccs1 | inconclusive: 18.5 µM [inhibitor, single point]
CCCc1ccc(S(=O)(=O)N2CCN(Cc3ccco3)CC2)cc1 | inconclusive: 18.5 µM [inhibitor, single point]
COc1ccccc1CNC(=O)C(CC(C)C)NC(=O)C1CCC(C)CC1 (stereo unspecified) | active: 13.1 µM
COc1ccc(S(=O)(=O)Nc2ccccc2C)cc1 | inconclusive: 14.7 µM [inhibitor, single point]
O=C(CNC(=O)Cc1ccccc1)N=Nc1c(O)[nH]c2ccc(Br)cc12 | inactive
O=c1c2ccc([N+](=O)[O-])c3cccc(c32)c2nc3ccccc3n12 | inactive

Three of the compounds above, as tab-separated lines.
Structure (SMILES)	Potency
COCC(C)NC(=O)CSc1nc(-c2ccccc2)c(-c2ccccc2)o1 (stereo unspecified)	inconclusive: 18.5 µM [inhibitor, single point]
COC(=O)[C@@H]1C[C@@]2(O)[C@@H](O)[C@@H](O)[C@@H](O)C[C@H]2N1C/C=C/c1ccccc1	inactive
O=C(CNC(=O)Cc1ccccc1)N=Nc1c(O)[nH]c2ccc(Br)cc12	inactive

The listing continues.

Structure (SMILES) | Potency
C#CCOCCOCCOCCNc1nc(N2CCN(C(=O)[C@H](CCC(=O)O)n3cc(C(N)Cc4ccc(O)cc4)nn3)CC2)nc(N2CCN(C(=O)[C@H](Cc3ccc(O)cc3)n3cc(C(N)CC(C)C)nn3)CC2)n1 (stereo partly specified) | inactive
COC(=O)c1cn(NC(=O)c2cc([N+](=O)[O-])ccc2F)c(=O)c2ccccc12 | inactive
COCCNC(=S)Nc1ccc([N+](=O)[O-])cc1C | inactive
CC(=O)Nc1ccc(Sc2ncccc2C(=O)Nc2ccc(F)cc2)cn1 | active: 6.57 µM
CC(=O)Nc1nc2ccc(S(=O)(=O)N3CCCC3)cc2s1 | inconclusive: 1.65 µM [inhibitor, partial curve, poor fit]
Cc1ccc2c(c1)C(c1ccccc1)N(C(=O)c1ccc(S(=O)(=O)N3CCOCC3)cc1)CC(=O)N2 (stereo unspecified) | inconclusive: 9.28 µM [inhibitor, partial curve, poor fit]
Cc1nc(N2CCN(C(=O)c3cnccn3)CC2)c2c3c(sc2n1)CC(C(C)(C)C)CC3 (stereo unspecified) | inconclusive: 2.33 µM [inhibitor, full curve]
O=C(OCCN1CCOCC1)c1cccs1 | inactive
COC(=O)C1=C(c2cccc(OCc3ccccc3)c2)C[C@@H]2CC[C@H]1N2C(=O)NCc1ccc(OC)cc1 | inconclusive: 5.86 µM [inhibitor, partial curve]
NCCNC[C@@H]1COC2(CCCCCCCCCCC2)O1 | active: 7.38 µM
Cc1ccc(NC(=O)CSc2ccc(S(=O)(=O)N3CCCC3)cn2)cc1F | inconclusive: 13.1 µM [inhibitor, single point]
N/N=C(\c1ccccc1)c1cc(Cl)ccc1N | inconclusive: 4.15 µM [inhibitor, single point]
CCCCc1c(C)nc2cc(-c3ccco3)[nH]n2c1=O | inconclusive: 18.5 µM [inhibitor, single point]
O=C(NCCc1cccs1)C1CCC(=O)N(CCc2cccc(F)c2)C1 (stereo unspecified) | inconclusive: 10.4 µM [inhibitor, single point]
Cc1cc(/C=N/n2cnnc2)c(C)n1-c1ccc(OCc2ccccc2F)cc1 | inactive
CC(=O)Nc1cccc(NC(=O)CCn2cnc3cc(C)c(C)cc32)c1 | inconclusive: 14.7 µM [inhibitor, single point]
CCc1cccc(CC)c1NC(=S)NCCc1c(C)[nH]c2ccc(C)cc12 | active: 10.4 µM
Cc1cccc(N(CC(=O)N2CCCCCC2)S(C)(=O)=O)c1 | inconclusive: 18.5 µM [inhibitor, single point]
COc1ccc(-c2nc(NCCCN(C)C)c3ccccc3n2)cc1 | inconclusive: 10.4 µM [inhibitor, partial curve]
CC1CCCN(CCCNC(=O)c2cc3c(Cl)nc4ccccc4c3s2)C1 (stereo unspecified) | inconclusive: 18.5 µM [inhibitor, single point]
Cc1ccc(-n2nc(C)c3c2NC(=O)CSC3c2ccc3c(c2)OCO3)cc1 (stereo unspecified) | inconclusive: 10.4 µM [inhibitor, single point]
COc1ccccc1CN1CC(C(=O)NCc2ccc(SC)cc2)CCC1=O (stereo unspecified) | inconclusive: 10.4 µM [inhibitor, single point]
COC(=O)C[N+](C)(C)C/C=C\c1ccccc1 | inconclusive: 20.8 µM [inhibitor, partial curve, poor fit]

Reference: PubChem BioAssay AID504834 (National Center for Advancing Translational Sciences (NCATS), 2011)
